Laboratory results reported in patent US20200290989A1, “CALIXCROWNS AND USES THEREOF” (INNOPHARMASCREEN INC., priority 2019, published 2020).

System: STING / c-di-GMP
Assay: Protein-nucleotide interaction assay for STING and c-di-GMP binding using IPS-Linker-coated chip

O=C(O)COc1c2cccc1Cc1cccc3c1OCCOCCOCCOCCOc1c(cccc1C2)CC1=CC=CC(C3)C1OCC(=O)O (centres unmarked) [IPS-Linker]
lowest c-di-GMP concentration at which interaction detected (2′[DY-547]-AHC-c-di GMP ligand (FIG. 5)): 3.9 µM
lowest STING protein concentration at which interaction detected (His-tagged STING captured by His×6 antibody (FIG. 5)): 5 µM
